Results on 33 targets are retold here after the supplement of paper PMC10849652.

Chains of the proteins cited; added tags and fusions are not shown. Lines headed by an entry give the natural chain unless they say otherwise; changes in a name come on top.
UniProt Q9HC16: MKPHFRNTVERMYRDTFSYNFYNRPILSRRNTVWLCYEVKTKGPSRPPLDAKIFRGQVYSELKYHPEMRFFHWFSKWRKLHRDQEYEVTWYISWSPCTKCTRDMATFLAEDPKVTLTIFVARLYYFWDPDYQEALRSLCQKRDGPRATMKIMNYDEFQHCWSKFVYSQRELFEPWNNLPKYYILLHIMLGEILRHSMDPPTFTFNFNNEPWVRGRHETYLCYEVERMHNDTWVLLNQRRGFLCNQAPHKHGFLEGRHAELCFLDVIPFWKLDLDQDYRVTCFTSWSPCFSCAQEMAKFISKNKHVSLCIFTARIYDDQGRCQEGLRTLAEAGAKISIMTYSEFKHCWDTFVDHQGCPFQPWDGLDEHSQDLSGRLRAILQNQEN
UniProt O43299: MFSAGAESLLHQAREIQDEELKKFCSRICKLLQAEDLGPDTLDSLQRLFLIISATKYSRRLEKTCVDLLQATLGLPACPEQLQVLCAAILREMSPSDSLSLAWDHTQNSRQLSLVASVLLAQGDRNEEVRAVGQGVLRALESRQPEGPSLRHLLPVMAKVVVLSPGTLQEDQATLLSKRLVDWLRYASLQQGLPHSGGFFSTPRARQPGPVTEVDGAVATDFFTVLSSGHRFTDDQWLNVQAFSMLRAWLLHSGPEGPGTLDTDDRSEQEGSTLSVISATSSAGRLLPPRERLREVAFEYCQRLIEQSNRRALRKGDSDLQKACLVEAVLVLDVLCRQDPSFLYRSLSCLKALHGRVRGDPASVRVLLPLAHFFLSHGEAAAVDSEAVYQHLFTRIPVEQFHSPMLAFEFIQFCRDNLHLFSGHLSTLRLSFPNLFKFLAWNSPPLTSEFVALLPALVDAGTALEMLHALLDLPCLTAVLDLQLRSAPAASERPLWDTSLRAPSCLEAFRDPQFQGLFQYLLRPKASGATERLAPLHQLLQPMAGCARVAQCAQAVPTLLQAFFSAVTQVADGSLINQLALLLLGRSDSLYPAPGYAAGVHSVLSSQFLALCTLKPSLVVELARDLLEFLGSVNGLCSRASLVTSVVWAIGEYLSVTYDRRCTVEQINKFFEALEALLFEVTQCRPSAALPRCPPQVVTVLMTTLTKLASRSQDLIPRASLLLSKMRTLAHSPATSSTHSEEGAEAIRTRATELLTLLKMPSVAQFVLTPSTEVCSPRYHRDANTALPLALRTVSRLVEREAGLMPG
UniProt Q7Z2E3: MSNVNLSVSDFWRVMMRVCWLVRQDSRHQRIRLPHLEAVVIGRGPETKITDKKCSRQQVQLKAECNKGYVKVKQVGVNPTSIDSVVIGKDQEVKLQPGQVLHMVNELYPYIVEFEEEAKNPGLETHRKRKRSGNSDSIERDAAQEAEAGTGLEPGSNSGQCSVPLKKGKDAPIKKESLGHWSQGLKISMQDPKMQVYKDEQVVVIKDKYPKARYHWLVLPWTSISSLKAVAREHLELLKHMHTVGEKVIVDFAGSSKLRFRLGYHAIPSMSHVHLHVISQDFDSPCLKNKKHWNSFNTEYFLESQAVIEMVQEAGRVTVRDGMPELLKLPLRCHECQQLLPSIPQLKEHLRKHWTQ
UniProt Q9UH62: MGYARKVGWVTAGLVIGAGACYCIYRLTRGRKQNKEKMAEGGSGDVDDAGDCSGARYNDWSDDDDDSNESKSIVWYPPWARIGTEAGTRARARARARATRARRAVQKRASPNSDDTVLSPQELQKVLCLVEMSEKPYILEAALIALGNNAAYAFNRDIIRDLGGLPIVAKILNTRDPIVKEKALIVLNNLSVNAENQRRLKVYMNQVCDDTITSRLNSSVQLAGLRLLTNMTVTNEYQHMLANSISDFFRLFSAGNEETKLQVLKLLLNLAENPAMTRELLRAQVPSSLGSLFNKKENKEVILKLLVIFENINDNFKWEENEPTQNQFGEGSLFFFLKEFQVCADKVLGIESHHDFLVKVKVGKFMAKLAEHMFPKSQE
UniProt Q06481, whole entry, looked up: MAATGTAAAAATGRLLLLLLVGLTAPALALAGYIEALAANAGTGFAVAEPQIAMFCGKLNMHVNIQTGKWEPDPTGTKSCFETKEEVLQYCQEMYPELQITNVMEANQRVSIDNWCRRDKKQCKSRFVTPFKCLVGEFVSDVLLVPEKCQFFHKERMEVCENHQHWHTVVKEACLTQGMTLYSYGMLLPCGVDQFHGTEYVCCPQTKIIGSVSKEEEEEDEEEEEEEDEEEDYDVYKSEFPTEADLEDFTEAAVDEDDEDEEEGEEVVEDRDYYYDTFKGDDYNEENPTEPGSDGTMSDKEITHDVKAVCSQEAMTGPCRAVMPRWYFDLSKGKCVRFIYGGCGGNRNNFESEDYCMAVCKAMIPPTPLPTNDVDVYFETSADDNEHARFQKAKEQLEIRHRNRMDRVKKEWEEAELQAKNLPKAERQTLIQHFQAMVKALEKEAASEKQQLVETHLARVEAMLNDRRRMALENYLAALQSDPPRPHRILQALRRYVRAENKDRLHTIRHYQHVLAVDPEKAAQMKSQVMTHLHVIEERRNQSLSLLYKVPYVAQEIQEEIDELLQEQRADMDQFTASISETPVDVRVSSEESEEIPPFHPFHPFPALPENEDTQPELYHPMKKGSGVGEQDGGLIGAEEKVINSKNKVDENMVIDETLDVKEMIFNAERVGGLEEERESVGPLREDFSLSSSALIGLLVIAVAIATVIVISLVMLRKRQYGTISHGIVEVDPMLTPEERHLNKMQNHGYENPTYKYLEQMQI
UniProt Q8NFD5, whole entry, looked up: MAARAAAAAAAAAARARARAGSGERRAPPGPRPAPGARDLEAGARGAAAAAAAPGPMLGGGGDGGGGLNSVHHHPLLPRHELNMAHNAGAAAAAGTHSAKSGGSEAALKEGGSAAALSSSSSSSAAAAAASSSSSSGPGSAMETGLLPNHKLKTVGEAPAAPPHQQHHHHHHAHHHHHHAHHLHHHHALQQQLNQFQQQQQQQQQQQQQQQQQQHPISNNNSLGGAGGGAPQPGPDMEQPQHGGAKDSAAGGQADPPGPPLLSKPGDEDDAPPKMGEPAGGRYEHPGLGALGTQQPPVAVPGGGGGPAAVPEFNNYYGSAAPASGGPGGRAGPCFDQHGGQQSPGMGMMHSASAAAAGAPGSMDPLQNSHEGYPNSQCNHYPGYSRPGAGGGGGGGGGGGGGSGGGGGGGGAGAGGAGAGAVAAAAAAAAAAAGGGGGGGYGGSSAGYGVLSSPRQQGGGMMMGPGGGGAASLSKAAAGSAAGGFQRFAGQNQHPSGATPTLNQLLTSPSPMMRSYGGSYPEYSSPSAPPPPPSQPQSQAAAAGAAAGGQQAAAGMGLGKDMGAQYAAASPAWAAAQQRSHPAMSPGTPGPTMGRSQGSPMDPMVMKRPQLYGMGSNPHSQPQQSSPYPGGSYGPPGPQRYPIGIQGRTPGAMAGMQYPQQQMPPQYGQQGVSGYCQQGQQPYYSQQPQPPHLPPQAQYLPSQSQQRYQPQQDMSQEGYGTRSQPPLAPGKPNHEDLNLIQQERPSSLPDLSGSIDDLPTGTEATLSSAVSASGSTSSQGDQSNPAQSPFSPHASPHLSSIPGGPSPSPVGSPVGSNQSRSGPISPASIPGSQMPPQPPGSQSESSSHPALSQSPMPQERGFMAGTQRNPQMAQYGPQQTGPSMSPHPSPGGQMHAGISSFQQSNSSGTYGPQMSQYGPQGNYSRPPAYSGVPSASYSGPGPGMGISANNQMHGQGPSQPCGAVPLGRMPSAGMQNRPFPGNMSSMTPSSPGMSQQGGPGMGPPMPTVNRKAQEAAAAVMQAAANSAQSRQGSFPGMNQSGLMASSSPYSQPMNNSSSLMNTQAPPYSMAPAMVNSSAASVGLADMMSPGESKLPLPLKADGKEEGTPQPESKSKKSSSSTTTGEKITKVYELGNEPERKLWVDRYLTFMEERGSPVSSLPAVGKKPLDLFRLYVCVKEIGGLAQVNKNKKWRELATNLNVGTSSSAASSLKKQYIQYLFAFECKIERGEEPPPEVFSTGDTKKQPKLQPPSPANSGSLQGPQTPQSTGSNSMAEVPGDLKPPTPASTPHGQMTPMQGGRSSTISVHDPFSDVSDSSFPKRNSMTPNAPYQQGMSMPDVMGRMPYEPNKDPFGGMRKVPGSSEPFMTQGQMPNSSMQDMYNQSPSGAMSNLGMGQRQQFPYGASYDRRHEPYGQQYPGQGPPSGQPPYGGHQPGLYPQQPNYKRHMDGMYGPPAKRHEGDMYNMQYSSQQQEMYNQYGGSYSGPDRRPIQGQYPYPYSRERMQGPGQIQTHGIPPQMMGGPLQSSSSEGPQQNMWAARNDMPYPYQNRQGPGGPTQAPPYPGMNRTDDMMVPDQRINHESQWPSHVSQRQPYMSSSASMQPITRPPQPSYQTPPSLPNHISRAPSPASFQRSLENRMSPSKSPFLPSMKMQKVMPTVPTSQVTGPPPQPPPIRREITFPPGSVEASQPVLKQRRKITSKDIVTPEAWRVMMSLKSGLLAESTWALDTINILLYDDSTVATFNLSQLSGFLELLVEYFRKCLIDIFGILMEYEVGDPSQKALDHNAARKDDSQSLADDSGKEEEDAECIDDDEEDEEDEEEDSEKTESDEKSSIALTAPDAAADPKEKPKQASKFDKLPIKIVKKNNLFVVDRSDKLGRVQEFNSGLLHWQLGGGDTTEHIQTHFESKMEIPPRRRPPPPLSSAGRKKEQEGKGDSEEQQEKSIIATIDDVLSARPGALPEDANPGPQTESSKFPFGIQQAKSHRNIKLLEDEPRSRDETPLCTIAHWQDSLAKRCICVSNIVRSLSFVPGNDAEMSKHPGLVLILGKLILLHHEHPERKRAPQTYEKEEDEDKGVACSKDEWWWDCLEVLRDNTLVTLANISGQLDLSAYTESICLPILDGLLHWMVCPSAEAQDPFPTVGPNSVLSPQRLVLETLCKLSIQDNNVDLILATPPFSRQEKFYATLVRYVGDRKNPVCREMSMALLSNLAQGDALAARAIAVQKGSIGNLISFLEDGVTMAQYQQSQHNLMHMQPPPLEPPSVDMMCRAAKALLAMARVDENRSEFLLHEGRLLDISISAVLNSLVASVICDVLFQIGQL
UniProt O15085: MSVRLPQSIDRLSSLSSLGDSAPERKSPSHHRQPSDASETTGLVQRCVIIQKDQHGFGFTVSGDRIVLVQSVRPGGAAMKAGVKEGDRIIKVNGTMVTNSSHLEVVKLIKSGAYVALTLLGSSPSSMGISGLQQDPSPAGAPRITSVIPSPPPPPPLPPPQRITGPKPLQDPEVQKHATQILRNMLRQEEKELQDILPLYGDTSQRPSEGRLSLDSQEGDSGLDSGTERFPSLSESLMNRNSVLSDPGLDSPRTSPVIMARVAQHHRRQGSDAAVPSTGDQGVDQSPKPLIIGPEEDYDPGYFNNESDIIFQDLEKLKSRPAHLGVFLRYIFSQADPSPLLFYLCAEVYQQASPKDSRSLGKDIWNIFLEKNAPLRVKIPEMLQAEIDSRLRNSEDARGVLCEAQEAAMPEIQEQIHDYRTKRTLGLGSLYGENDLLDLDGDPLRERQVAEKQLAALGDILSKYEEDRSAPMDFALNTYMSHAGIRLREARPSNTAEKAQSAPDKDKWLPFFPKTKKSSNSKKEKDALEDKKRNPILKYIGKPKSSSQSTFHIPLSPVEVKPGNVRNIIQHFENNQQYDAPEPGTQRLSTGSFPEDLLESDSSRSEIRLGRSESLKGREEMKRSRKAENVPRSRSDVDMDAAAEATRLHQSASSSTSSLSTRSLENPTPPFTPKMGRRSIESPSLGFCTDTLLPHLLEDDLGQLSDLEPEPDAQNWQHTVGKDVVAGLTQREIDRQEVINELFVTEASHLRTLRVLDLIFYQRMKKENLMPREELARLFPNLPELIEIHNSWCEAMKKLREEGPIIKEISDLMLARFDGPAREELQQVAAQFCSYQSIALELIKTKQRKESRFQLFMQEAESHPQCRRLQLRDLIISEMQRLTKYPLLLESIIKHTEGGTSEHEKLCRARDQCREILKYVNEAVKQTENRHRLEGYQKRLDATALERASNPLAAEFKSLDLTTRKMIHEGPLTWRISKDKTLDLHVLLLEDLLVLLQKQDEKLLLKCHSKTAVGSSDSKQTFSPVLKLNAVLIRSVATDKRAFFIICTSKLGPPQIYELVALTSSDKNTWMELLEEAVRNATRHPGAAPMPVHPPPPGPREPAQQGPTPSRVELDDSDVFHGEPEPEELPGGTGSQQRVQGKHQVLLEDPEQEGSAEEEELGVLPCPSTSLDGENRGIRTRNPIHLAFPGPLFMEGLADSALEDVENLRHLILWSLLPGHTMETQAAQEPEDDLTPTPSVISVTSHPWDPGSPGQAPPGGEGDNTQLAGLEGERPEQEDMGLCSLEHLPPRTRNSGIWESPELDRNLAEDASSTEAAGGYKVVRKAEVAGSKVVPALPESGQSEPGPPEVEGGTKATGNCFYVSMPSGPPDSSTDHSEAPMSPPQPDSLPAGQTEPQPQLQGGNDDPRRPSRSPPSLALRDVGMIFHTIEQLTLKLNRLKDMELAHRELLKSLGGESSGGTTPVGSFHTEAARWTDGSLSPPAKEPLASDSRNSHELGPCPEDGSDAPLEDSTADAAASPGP

The other results are listed elsewhere or left out.

Compound in one assay: Cn1cc(CNCC2CCN(c3ncc(C(=O)NO)cn3)CC2)c2ccccc21 [quisinostat]
In words: log2 fold change, soluble protein after heating vs DMSO (PISA); higher = thermal stabilisation; K562 lysate, 10 uM; active = over 0.2 and 3.5 SD of the protein, either way, in both replicates (recomputed). The essentials: (§1)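 Thermal stability, expressed as log-two fold change relative to solvent controls, is given from duplicates. Crude K562 extract in PBS pH 7.4 with 1 mM MgCl2, at 1 mg/mL protein, was treated with 10 μM compound for 30 min and heated in aliquots for 3 min across 48°C-58°C. After pooling, adjustment to 0.5% NP-40 at 4°C and centrifugation at 21,000xg for 90 min, supernatant protein was measured by TMTpro 16plex LC-MS/MS with channel sums equalised.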
Take ASAP1 isoform 2 (UniProt Q9ULH1): the log2 fold change was inactive: -0.023.
APOBEC3G (UniProt Q9HC16): the log2 fold change was inactive: -0.008.
On the same count and under the same terms, under AP5Z1 (UniProt O43299) stands inactive: -0.125; under ARIH1 (UniProt Q9Y4X5), inactive: 0.038; under ARHGEF10 (UniProt O15013), inactive: -0.094.
Still for that read-out and setting: the same measure for APOOL (UniProt Q6UXV4): inactive: -0.002; for ARFGEF2 (UniProt Q9Y6D5): inactive: -0.026.
Same read-out and setting: under ARRDC1 (UniProt Q8N5I2) stands inactive: 0.147; under ARID2 (UniProt Q68CP9), inactive: 0.035.
As to ARV1 (UniProt Q9H2C2), the log2 fold change is inactive: 0.086.
In the case of APTX (UniProt Q7Z2E3), the log2 fold change is inactive: -0.015.
Same read-out and setting: the same measure for APIP (UniProt Q96GX9): inactive: 0.016; for ARMCX3 (UniProt Q9UH62): inactive: -0.057.
Same read-out and setting: under ARSA (UniProt P15289) stands inactive: 0.024.
The same measure, in the same setting: the same measure for ARHGAP18 (UniProt Q8N392): inactive: -0.036.
With APLP2 (UniProt Q06481), the log2 fold change is inactive: 0.025.
Turning to AP4S1 (UniProt Q9Y587), the log2 fold change is inactive: 0.076.
Still for that read-out and setting: under ARL6IP1 (UniProt Q15041) stands inactive: 0.025.
The same measure, in the same setting: under ARHGAP5 (UniProt Q13017) stands inactive: -0.035; under APPL1 (UniProt Q9UKG1), inactive: -0.049; under ARID1B isoform 3 (UniProt Q8NFD5), inactive: 0.09.
Same read-out and setting: the same measure for ARHGEF11 isoform 2 (UniProt O15085): inactive: -0.01; for ARFGEF1 (UniProt Q9Y6D6): inactive: -0.014; for ARID4B (UniProt Q4LE39): inactive: -0.012.
For the target ARAF (UniProt P10398), the log2 fold change was inactive: -0.069.
Consider APAF1 (UniProt O14727), for which the log2 fold change was inactive: -0.091.
As for ARFGAP3 (UniProt Q9NP61), the log2 fold change is inactive: 0.012.
Still for that read-out and setting: the same measure for ARHGAP21 (UniProt Q5T5U3): inactive: -0.06; for APMAP (UniProt Q9HDC9): inactive: -0.021; for AP5M1 (UniProt Q9H0R1): inactive: -0.08.
On the same count and under the same terms, the same measure for APOBEC3C (UniProt Q9NRW3): inactive: -0.144.
As to APOC1 (UniProt P02654), the log2 fold change is inactive: 0.068.
On the same count and under the same terms, the same measure for ARFIP1 (UniProt P53367): inactive: -0.002.

Compound in the next assay: Cn1cncc1[C@@](N)(c1ccc(Cl)cc1)c1ccc2c(c1)c(-c1cccc(Cl)c1)cc(=O)n2C [tipifarnib]
The description is as above. Summed up: as §1
Regarding ASAP1 isoform 2 (UniProt Q9ULH1), the log2 fold change was inactive: -0.021.
Still for that read-out and setting: under APOBEC3G (UniProt Q9HC16) stands inactive: 0; under AP5Z1 (UniProt O43299), inactive: 0.087.
The same measure, in the same setting: the same measure for ARIH1 (UniProt Q9Y4X5): inactive: 0.007.
Still for that read-out and setting: the same measure for ARHGEF10 (UniProt O15013): inactive: -0.076.
Consider APOOL (UniProt Q6UXV4), for which the log2 fold change was inactive: 0.032.
Same read-out and setting: under ARFGEF2 (UniProt Q9Y6D5) stands inactive: -0.048.
Same read-out and setting: under ARRDC1 (UniProt Q8N5I2) stands inactive: -0.003; under ARID2 (UniProt Q68CP9), inactive: -0.028; under ARV1 (UniProt Q9H2C2), inactive: -0.232.
The same measure, in the same setting: under APTX (UniProt Q7Z2E3) stands inactive: 0.018; under APIP (UniProt Q96GX9), inactive: 0.015.
As to ARMCX3 (UniProt Q9UH62), the log2 fold change was inactive: -0.008.
Take ARSA (UniProt P15289): the log2 fold change was inactive: 0.009.
On the same count and under the same terms, under ARHGAP18 (UniProt Q8N392) stands inactive: 0.01; under APLP2 (UniProt Q06481), inactive: 0.002.
The same measure, in the same setting: the same measure for AP4S1 (UniProt Q9Y587): inactive: 0.083.
For ARL6IP1 (UniProt Q15041), the log2 fold change is inactive: -0.027.
Turning to ARHGAP5 (UniProt Q13017), the log2 fold change is inactive: 0.015.
Same read-out and setting: the same measure for APPL1 (UniProt Q9UKG1): inactive: 0.036; for ARID1B isoform 3 (UniProt Q8NFD5): inactive: -0.011.
In the case of ARHGEF11 isoform 2 (UniProt O15085), the log2 fold change is inactive: 0.002.
The same measure, in the same setting: the same measure for ARFGEF1 (UniProt Q9Y6D6): inactive: -0.019; for ARID4B (UniProt Q4LE39): inactive: -0.039; for ARAF (UniProt P10398): inactive: -0.023.
As for APAF1 (UniProt O14727), the log2 fold change is inactive: -0.026.
Still for that read-out and setting: under ARFGAP3 (UniProt Q9NP61) stands inactive: -0.045; under ARHGAP21 (UniProt Q5T5U3), inactive: 0.019.
The same measure, in the same setting: the same measure for APMAP (UniProt Q9HDC9): inactive: -0.024; for AP5M1 (UniProt Q9H0R1): inactive: 0.024.
Same read-out and setting: the same measure for APOBEC3C (UniProt Q9NRW3): inactive: -0.024; for APOC1 (UniProt P02654): inactive: 0.242; for ARFIP1 (UniProt P53367): inactive: 0.01.

Compound in the next assay: NC(=O)Nc1cc(-c2cccc(F)c2)sc1C(=O)N[C@H]1CCCNC1
The assay is described as above. The essentials: as §1
ASAP1 isoform 2 (UniProt Q9ULH1): the log2 fold change is inactive: 0.03.
For APOBEC3G (UniProt Q9HC16), the log2 fold change is inactive: 0.021.
On the same count and under the same terms, under AP5Z1 (UniProt O43299) stands inactive: 0.066.
The same measure, in the same setting: under ARIH1 (UniProt Q9Y4X5) stands inactive: -0.014.
The same measure, in the same setting: the same measure for ARHGEF10 (UniProt O15013): inactive: 0.08; for APOOL (UniProt Q6UXV4): inactive: 0.004.
Take ARFGEF2 (UniProt Q9Y6D5): the log2 fold change is inactive: 0.099.
Same read-out and setting: the same measure for ARRDC1 (UniProt Q8N5I2): inactive: -0.032; for ARID2 (UniProt Q68CP9): inactive: -0.034; for ARV1 (UniProt Q9H2C2): inactive: -0.084.
Still for that read-out and setting: under APTX (UniProt Q7Z2E3) stands inactive: 0.017; under APIP (UniProt Q96GX9), inactive: 0.002.
Still for that read-out and setting: the same measure for ARMCX3 (UniProt Q9UH62): inactive: 0.04.
With ARSA (UniProt P15289), the log2 fold change was inactive: -0.031.
On the same count and under the same terms, the same measure for ARHGAP18 (UniProt Q8N392): inactive: 0.011; for APLP2 (UniProt Q06481): inactive: 0.006; for AP4S1 (UniProt Q9Y587): inactive: 0.005.
On the same count and under the same terms, the same measure for ARL6IP1 (UniProt Q15041): inactive: -0.019; for ARHGAP5 (UniProt Q13017): inactive: -0.004.
Still for that read-out and setting: under APPL1 (UniProt Q9UKG1) stands inactive: 0.026.
As for ARID1B isoform 3 (UniProt Q8NFD5), the log2 fold change is inactive: 0.041.
Same read-out and setting: the same measure for ARHGEF11 isoform 2 (UniProt O15085): inactive: 0.053.
Still for that read-out and setting: under ARFGEF1 (UniProt Q9Y6D6) stands inactive: 0.023; under ARID4B (UniProt Q4LE39), inactive: 0.029; under ARAF (UniProt P10398), inactive: 0.011.
Still for that read-out and setting: under APAF1 (UniProt O14727) stands inactive: 0.052; under ARFGAP3 (UniProt Q9NP61), inactive: -0.032; under ARHGAP21 (UniProt Q5T5U3), inactive: 0.053.
For the target APMAP (UniProt Q9HDC9), the log2 fold change is inactive: -0.014.
On the same count and under the same terms, under AP5M1 (UniProt Q9H0R1) stands inactive: 0.039; under APOBEC3C (UniProt Q9NRW3), inactive: -0.067; under APOC1 (UniProt P02654), inactive: -0.02.
In the case of ARFIP1 (UniProt P53367), the log2 fold change was inactive: 0.011.
